PubChem BioAssay AID1259314 | Drosophila RNAi Screening Center, 2017
Assay: 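Transmembrane protein genes affecting ATP after manganese overload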 (primary screen). Cell system: Drosophila S2R+ cells. Reagents: long dsRNA against Drosophila genes. Timing: 5 days (4 days knock-down, then 1 day metal exposure). Conditions: manganese chloride added to 15 mM for 24 hours. Measurement: 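Cellular ATP measured by luciferase light, scaled to the plate mean, averaged across replicates and z-scored over plates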. Scale: mean ATP z-score: higher = more ATP than the plate average, more viable cells under manganese. Call rule: 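Called active when the mean ATP z-score is above 1.5 or below -1.5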. Meaning of the calls: active = strong ATP change, up or down; inactive = no strong ATP change.
Here is an unselected part of about 3,100 deposited reagents. Of all reagents, 289 (9.3%) were called active. 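Active includes both higher and lower ATP than plate average; check the z-score sign for direction.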 A plus sign joins genes that one reagent is predicted to hit. Not given: the amount of reagent.

Fili [DRSC03907] → mean ATP z-score: 0.407; activity call: inactive
Fili [DRSC04132] → mean ATP z-score: -2.25; activity call: active
Fili [DRSC04445] → mean ATP z-score: 1.17; activity call: inactive
SdhD [DRSC14215] → mean ATP z-score: -0.441; activity call: inactive
SdhD [DRSC39808] → mean ATP z-score: 0.25; activity call: inactive
CG32512 [DRSC20519] → mean ATP z-score: 0.128; activity call: inactive
CG32512 [DRSC21401] → mean ATP z-score: -0.238; activity call: inactive
Abca3 [DRSC20546] → mean ATP z-score: -0.169; activity call: inactive
CG4928 [DRSC19342] → mean ATP z-score: 1.78; activity call: active
CG4928 [DRSC29007] → mean ATP z-score: 1.64; activity call: active
Cad86C [DRSC15611] → mean ATP z-score: 0.0165; activity call: inactive
Cad86C [DRSC27602] → mean ATP z-score: -1.48; activity call: inactive
Cad86C [DRSC28094] → mean ATP z-score: 1.3; activity call: inactive
yin [DRSC21889] → mean ATP z-score: -0.0804; activity call: inactive
yin [DRSC39804] → mean ATP z-score: -0.68; activity call: inactive
MFS14 [DRSC29787] → mean ATP z-score: -0.251; activity call: inactive
MFS14 [DRSC39753] → mean ATP z-score: 0.779; activity call: inactive
CG15408 [DRSC00423] → mean ATP z-score: -0.271; activity call: inactive
CG15408 [DRSC39715] → mean ATP z-score: -0.583; activity call: inactive
wus [DRSC20278] → mean ATP z-score: -0.16; activity call: inactive
wus [DRSC39483] → mean ATP z-score: -1.26; activity call: inactive
hbt + CG43779 [DRSC23270] → mean ATP z-score: -1.6; activity call: active
hbt + CG43779 [DRSC39693] → mean ATP z-score: -1.25; activity call: inactive
jagn [DRSC12152] → mean ATP z-score: 0.942; activity call: inactive
jagn [DRSC39810] → mean ATP z-score: 0.246; activity call: inactive
Ptp99A [DRSC14320] → mean ATP z-score: -0.261; activity call: inactive
Ptp99A [DRSC16803] → mean ATP z-score: 0.0646; activity call: inactive
Ptp99A [DRSC22477] → mean ATP z-score: 0.864; activity call: inactive
Ptp99A [DRSC23033] → mean ATP z-score: -0.272; activity call: inactive
Ptp99A [DRSC37009] → mean ATP z-score: -0.533; activity call: inactive
TM9SF4 [DRSC01888] → mean ATP z-score: -0.317; activity call: inactive
TM9SF4 [DRSC39660] → mean ATP z-score: -0.737; activity call: inactive
CG12490 [DRSC04123] → mean ATP z-score: -1.05; activity call: inactive
CG11537 [DRSC08200] → mean ATP z-score: -1.14; activity call: inactive
CG11537 [DRSC39579] → mean ATP z-score: -0.631; activity call: inactive
Sys1 [DRSC14372] → mean ATP z-score: 1.15; activity call: inactive
pain [DRSC04273] → mean ATP z-score: 0.205; activity call: inactive
pain [DRSC28351] → mean ATP z-score: 0.168; activity call: inactive
CG15614 [DRSC06567] → mean ATP z-score: -0.434; activity call: inactive
CG13229 [DRSC06349] → mean ATP z-score: 1.39; activity call: inactive
Ca-Ma2d [DRSC29730] → mean ATP z-score: 0.357; activity call: inactive
CG31998 [DRSC17137] → mean ATP z-score: 0.588; activity call: inactive
CG31998 [DRSC17138] → mean ATP z-score: 0.0174; activity call: inactive
Sr-CI [DRSC00790] → mean ATP z-score: 0.229; activity call: inactive
Sr-CI [DRSC23942] → mean ATP z-score: 0.156; activity call: inactive
Ugalt [DRSC18467] → mean ATP z-score: -0.121; activity call: inactive
Sras [DRSC11287] → mean ATP z-score: -1.38; activity call: inactive
